Some of these results come from one statement about several compounds together.
Key:
Assay type in all cases: in vivo
Venturia inaegualis = assay: Action against Venturia inaegualis/apple (scab on apple); settings: apple seedlings cv. McIntosh, 0.02% active ingredient spray, inoculated 1 day after application
Uncinula necator = assay: Action against Uncinula necator/grape (powdery mildew on grape); settings: grape seedlings cv. Gutedel, 0.02% active ingredient spray, inoculated 1 day after application, assessed after 7 days
Botrytis cinerea [1] = assay: Action against Botrytis cinerea/tomato (Botrytis on tomatoes); settings: tomato plants cv. Roter Gnom, 0.02% active ingredient spray, inoculated 2 days after application, assessed after 4 days
Erysiphe graminis = assay: Action against Erysiphe graminis/barley (powdery mildew on barley); settings: barley plants cv. Express, 0.02% active ingredient spray, inoculated 1 day after application, assessed after 6 days
Podosohaera leucotricha = assay: Action against Podosohaera leucotricha/apple (powdery mildew on apple); settings: apple seedlings cv. McIntosh, 0.02% active ingredient spray, inoculated 1 day after application, assessed after 12 days
Septoria tritici = assay: Action against Septoria tritici/wheat (Septoria leaf spot on wheat); settings: wheat plants cv. Riband, 0.02% active ingredient spray, inoculated 1 day after application, assessed 18 days after inoculation
Botrytis cinerea [2] = assay: Action against Botrytis cinerea/apple (Botrytis on apple fruits); settings: apple fruit cv. Golden Delicious, 0.02% active ingredient in drilled holes, inoculated 2 hours after application, assessed after 7 days
Alternaria solani = assay: Action against Alternaria solani/tomato (early blight on tomatoes); settings: tomato plants cv. Roter Gnom, 0.02% active ingredient spray, inoculated 2 days after application, assessed after 3 days
Botrytis cinerea [3] = assay: Action against Botrytis cinerea/grape (Botrytis on grapes); settings: grape seedlings cv. Gutedel, 0.02% active ingredient spray, inoculated 2 days after application, assessed after 4 days
Pyrenophora teres = assay: Action against Pyrenophora teres/barley (net blotch on barley); settings: barley plants cv. Express, 0.02% active ingredient spray, inoculated 2 days after application, assessed 4 days after inoculation

Measured: infestation (disease incidence)

Cn1cc(C(=O)NC2CC2c2ccc(Cl)cc2Cl)c(C(F)F)n1 (centres unmarked) [Compound 1.143]
< 20%: all assays above

O=C(NC1CC1c1ccccc1Cl)c1ccccc1C(F)(F)F (centres unmarked) [Compound 6.222]
< 20%: all assays above

Cn1cc(C(=O)NC2CC2c2ccccc2Cl)c(C(F)F)n1 (centres unmarked) [Compound 1.222]
< 20%: all assays above

Cn1cc(C(=O)NC2CC2c2ccc(F)cc2)c(C(F)F)n1 (centres unmarked) [Compound 1.079]
< 20%: all assays above

Cn1cc(C(=O)NC2CC2c2ccc(Cl)cc2Cl)c(C(F)(F)F)n1 (centres unmarked) [Compound 2.143]
< 20%: all assays above

O=C(NC1CC1c1ccc(Cl)cc1Cl)c1ccccc1C(F)(F)F (centres unmarked) [Compound 6.143]
< 20%: all assays above

O=C(N[C@@H]1C[C@]1(F)c1ccc(Cl)cc1)c1ccccc1C(F)(F)F [Compound 6.004, N-[(1R,2S)-2-(4-chlorophenyl)-2-fluoro-cyclopropyl]-2-trifluoromethyl-benzamide]
< 20%: all assays above

Cn1cc(C(=O)NC2CC2c2ccccc2Cl)c(C(F)(F)F)n1 (centres unmarked) [Compound 2.222]
< 20%: all assays above

Cn1cc(C(=O)NC2CC2(F)c2ccc(Cl)cc2)c(C(F)F)n1 (centres unmarked) [Compound 1.004, 3-difluoromethyl-1-methyl-1H-pyrazole-4-carboxylic acid (2-(4-chlorophenyl)-2-fluoro-cyclopropyl)-amide]
< 20%: all assays above

Cn1cc(C(=O)NC2CC2c2ccc(Cl)cc2)c(C(F)F)n1 (centres unmarked) [Compound 1.001, 3-difluoromethyl-1-methyl-1H-pyrazole-4-carboxylic acid [2-(4-chlorophenyl)-cyclopropyl]-amide]
< 20%: all assays above

Cn1cc(C(=O)NC2CC2c2ccc(F)cc2)c(C(F)(F)F)n1 (centres unmarked) [Compound 2.079]
< 20%: all assays above

Reference: patent publication US8618023B2, “Microbiocides” (Syngenta Crop Protection, LLC, priority 2006, dated 2013)
